{
  "source": "patent US20040039031A1",
  "about": "“Novel pharmaceutical compositions having an antidiabetic action, and process for their preparation” (priority 2000, published 2004)",
  "test_system": "NIDD STZ rats",
  "experiment": "Streptozotocin-induced NIDD diabetic rats, eight-day oral treatment, plasma biological parameters",
  "type": "in vivo, male Wistar rats",
  "protocol": "40 male Wistar rats (Charles River, Saint Aubin les Elbeuf, France), with an average weight of 280 g, are used in this experiment. The animals are housed for one week in a standardised animal house, the following parameters of which are controlled: The forty rats are made diabetic by IP administration of 50 mg/kg of streptozotocin dissolved in physiological saline (a single administration). […] For each rat, 100 μl of blood are collected by venepuncture in a caudal vein, onto heparin, at time D0 (before the administration of STZ), at time D21 (21 days after STZ, before the treatments) and at D29 (after eight days of treatment). The samples are immediately centrifuged (10 minutes at 4000 rpm) and the plasma is separated from the blood cells. […] After thawing the plasma samples, the above parameters are determined by enzymatic methods, using a COBAS automated machine (Roche). The glycaemia is measured by the hexokinase method; the cholesterol by the enzymatic final Randox point method; the triglycerides by the GPO-PAP method; the lactic acid by the lactic dehydrogenase method. The circulating insulin is measured by radioimmunoassay using CEA kits. The efficacy of the treatments is evaluated between […] by a t test adapted to paired series (for each rat, the value at D21 relative to D29 serves as the control).",
  "data": [
    {"smiles": "CN(C)C(=N)N=C(N)N", "note": "[Metformin, metformin]", "values": [
      {"measurement": "Weight", "setting": "metformin 30 mg/kg/day group, D0 (before STZ)", "result": 288, "unit": "g"},
      {"measurement": "Weight", "setting": "metformin (hydrochloride) 30 mg/kg/day orally in two doses, D29 (after eight days of treatment)", "result": 247, "unit": "g"}
    ]}
  ]
}
